Results taken from publication PMC5492033, “The N-Terminal Region of the Ryanodine Receptor Affects Channel Activation” (Frontiers in Physiology, 2017).

Test: Stability of the bilayer membrane after DPcpvtN2 addition

With “HEESRTARVIRSTVFLFBRFIRGLDALSK [DPcpvtN2, domain peptide containing amino acids 410–438 of human RyR2, the central helix of the N-terminal region]” the “Dependence of median time to bilayer rupture on presence of RyR” value (1–2 μM DPcpvtN2) was “did not depend on the presence of RyR in the membrane” and the “Effect on bilayer membrane” value (concentrations higher than 2 μM) was “induced rupture of the bilayer membrane”.
